Experimental data taken from PubChem BioAssay AID485314 (National Center for Advancing Translational Sciences (NCATS), 2010).
Screen size: about 340,000 compounds; about 4,500 (1.3%) were called active. The inconclusive results got no clear call from the source; some entries with a clear call stand among them for comparison. Calls follow the shape of the dose curve; as a rule, active = well fitted inhibition curve with a large enough effect; inconclusive = small, poorly fitted or top-dose-only effect, or another doubt; inactive = no such curve, though single readings can be large or run the other way. Potencies of inconclusive entries are doubtful fits and often do not repeat.

target: DNA polymerase beta (Homo sapiens) (UniProt P06746); test: qHTS Assay for Inhibitors of DNA Polymerase Beta; details: Pol beta primer extension/strand displacement, fluorescence kinetic; series mostly up to 114 µM
Outline: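 10 nM enzyme + cpd, 15 min RT; start with substrate 50 nM final; read 0 min and after 10 min RT. Corrected, normalized data; 4-parameter Hill curve fit.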
Potency is read from the fitted curve at half-maximal effect.

Potency, active:
Cn1c(SCC(=O)c2ccc(O)c(O)c2)nnc1-c1cccs1 3.55 µM
O=C(O)c1ccc(COc2c(F)c(F)c(F)c(F)c2F)o1 39.8 µM
COc1ccc(/C=C/C(=O)NCC(=O)N=Nc2c(O)[nH]c3ccc([N+](=O)[O-])cc23)cc1 50.1 µM
CCOC(=O)c1cc(-c2ccco2)nc2c1c(C)nn2-c1ccccc1 44.7 µM

Potency, inactive:
CCCC(=O)N1c2ccccc2-c2nnc(SC)nc2OC1c1sccc1C (centres undefined)
COc1ccccc1NC(=O)N1CCN(c2nnc(C)c3c(C)n(-c4ccccc4)nc23)CC1
COc1ccc(C(=O)NCc2ncccc2C)cc1OC1CCN(C(C)=O)CC1
Cc1cccc(N(CC(=O)N2CCCCCC2)S(C)(=O)=O)c1C
O=C(c1cccs1)N1CCCc2cc(NS(=O)(=O)c3cc(F)ccc3F)ccc21
O=C(NCCc1ccc(Cl)cc1)c1cnc2sc(N3CCCC3)nn2c1=O
CCOC(=O)c1cnn(-c2nc(OCC)cc(OCC)n2)c1C
COc1ccc(/C=N/NC(=O)c2cccnc2)cc1CN1CCCc2ccccc21
O=C(CCCCn1c(=O)c2ccccc2n(Cc2ccc(F)cc2Cl)c1=O)NCCc1ccc(Cl)cc1
CN(CCOC(=O)CN1C(=O)c2ccccc2C1=O)C1=NS(=O)(=O)c2ccccc21
COc1ccc(Cc2c(O)nc(SC)n(C(C)=O)c2=O)cc1
O=c1cc(O)c2ccc(O)cc2o1
COc1ccc(Cl)cc1NC(=O)Cn1c(=O)n(-c2ccc(C)cc2)c(=O)c2ccc(C(=O)NCc3ccccc3Cl)cc21

Potency, inconclusive:
COc1ccc(-n2c(Cc3cccn3C)nnc2SCC(=O)Nc2cc(C)cc(C)c2)cc1 56.2 µM [inhibitor, single point]
CN(C)c1ccc(P(=O)(COc2ccc([N+](=O)[O-])cc2)c2ccc(N(C)C)cc2)cc1 89.1 µM [inhibitor, single point]
N#Cc1ccccc1Cn1c(=O)n(Cc2ccc(C(=O)NCc3ccco3)cc2)c(=O)c2ccccc21 63.1 µM [inhibitor, single point]
COC(=O)C1=C(N)Oc2cc(C)n(CC3CCCO3)c(=O)c2C1c1ccccc1 (centres undefined) 7.08 µM [inhibitor, full curve]
O=C(NCC1CC1)Nc1cccc(Cl)c1 4.47 µM [inhibitor, single point]
CCOc1ccc(S(=O)(=O)n2cc(F)c(=O)[nH]c2=O)cc1 0.141 µM [inhibitor, full curve, poor fit]
COc1ccccc1C/C(N)=N/OC(=O)/C=C/c1ccccc1 22.4 µM [inhibitor, partial curve, poor fit]
Cc1cc(C(=O)N/N=C/c2c[nH]c3ccccc23)cs1 31.6 µM [inhibitor, partial curve]
Cc1ccccc1N=Nc1c(C)[nH]n(C(N)=S)c1=O 0.141 µM [inhibitor, full curve, poor fit]
O=C(O)c1cc(-c2ccc(O)cc2)nc2ccccc12 89.1 µM [inhibitor, single point]
CCOC(=O)CCC(NC(=O)CCCC(=O)NC(CCC(=O)OCC)C(=O)OCC)C(=O)OCC (centres undefined) 89.1 µM [inhibitor, single point]
CC1=C(c2ccc(C)c(C)c2)S(=O)(=O)N=C1N1CCC(C(=O)NCc2ccc(N(C)C)cc2)CC1 89.1 µM [inhibitor, single point]
OCC1CCCN(c2ncnc3scc(-c4ccccc4)c23)C1 (centres undefined) 17.8 µM [inhibitor, full curve, poor fit]
O=C(NCc1ccccc1)c1ccccc1OCC(=O)N1CCCCC1 89.1 µM [inhibitor, single point]
NC(=O)c1ccccc1NC(=O)CCCc1ccccc1 89.1 µM [inhibitor, single point]
CCOc1ccc(NC(=S)N(Cc2ccc(N(C)C)cc2)Cc2ccco2)cc1 2.51 µM [inhibitor, full curve, poor fit]
Cc1ccc(NC(=O)c2nc(S(=O)(=O)Cc3ccc(F)cc3)ncc2Cl)cc1C 89.1 µM [inhibitor, single point]
Cc1ccc2nc(NC(=O)CSc3cc(C)[nH]c(=O)n3)sc2c1 20 µM [inhibitor, full curve, poor fit]
CCOC(=O)C1CCN(S(=O)(=O)c2ccc(-c3cc(C(F)(F)F)n(C)n3)s2)CC1 89.1 µM [inhibitor, single point]
O=C(Cc1csc(N2CCOCC2)n1)N/N=C/c1ccc(O)c(O)c1O 1.78 µM [inhibitor, full curve, poor fit]
CC(C)c1nc(SCC(=O)Nc2cccc(C(=O)O)c2)c2c3c(sc2n1)CCCC3 50.1 µM [inhibitor, partial curve, poor fit]
CCCn1ccc2c(OCC(=O)Nc3ccccc3C(=O)OCC)cccc2c1=O 35.5 µM [inhibitor, full curve]
O=S(=O)(NCCc1csc(-c2cccc(F)c2)n1)c1cc(F)ccc1F 89.1 µM [inhibitor, single point]
c1ccc(OCc2nnc(-c3ccccc3)o2)cc1 2 µM [inhibitor, partial curve]
O=c1ccc2cc(S(=O)(=O)NCCCc3ccccc3)ccc2[nH]1 70.8 µM [inhibitor, single point]
COc1ccc(-n2nc3c(=O)[nH][nH]c3cc2=O)cc1 11.2 µM [inhibitor, full curve]
COc1ccc(NC(=O)Nc2cnccn2)cc1 100 µM [inhibitor, single point]

A draw from above in order of molar mass, low to high:
Potency, inconclusive:
COc1ccc(NC(=O)Nc2cnccn2)cc1 100 µM [inhibitor, single point]
O=C(O)c1cc(-c2ccc(O)cc2)nc2ccccc12 89.1 µM [inhibitor, single point]
NC(=O)c1ccccc1NC(=O)CCCc1ccccc1 89.1 µM [inhibitor, single point]
COC(=O)C1=C(N)Oc2cc(C)n(CC3CCCO3)c(=O)c2C1c1ccccc1 (centres undefined) 7.08 µM [inhibitor, full curve]
O=S(=O)(NCCc1csc(-c2cccc(F)c2)n1)c1cc(F)ccc1F 89.1 µM [inhibitor, single point]
CCCn1ccc2c(OCC(=O)Nc3ccccc3C(=O)OCC)cccc2c1=O 35.5 µM [inhibitor, full curve]
CC(C)c1nc(SCC(=O)Nc2cccc(C(=O)O)c2)c2c3c(sc2n1)CCCC3 50.1 µM [inhibitor, partial curve, poor fit]
N#Cc1ccccc1Cn1c(=O)n(Cc2ccc(C(=O)NCc3ccco3)cc2)c(=O)c2ccccc21 63.1 µM [inhibitor, single point]
